Experimental data reported in article PMC4567819.
Results are given in words; binding and its absence hold for the method and conditions named. In cells and extracts the contact can be indirect. Some results given as binding are weak or reduced against the parent protein; the word gives no strength.

By UniProt entry, the sequences of proteins in these tests, tags left out.
UniProt O95863: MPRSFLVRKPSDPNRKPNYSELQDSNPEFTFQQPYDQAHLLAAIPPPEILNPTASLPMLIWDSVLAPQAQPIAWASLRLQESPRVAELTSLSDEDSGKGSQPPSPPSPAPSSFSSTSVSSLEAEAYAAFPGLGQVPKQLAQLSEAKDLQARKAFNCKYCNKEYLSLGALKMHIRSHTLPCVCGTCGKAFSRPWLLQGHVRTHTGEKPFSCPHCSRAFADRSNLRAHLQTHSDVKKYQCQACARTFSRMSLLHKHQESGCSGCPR
UniProt P28482: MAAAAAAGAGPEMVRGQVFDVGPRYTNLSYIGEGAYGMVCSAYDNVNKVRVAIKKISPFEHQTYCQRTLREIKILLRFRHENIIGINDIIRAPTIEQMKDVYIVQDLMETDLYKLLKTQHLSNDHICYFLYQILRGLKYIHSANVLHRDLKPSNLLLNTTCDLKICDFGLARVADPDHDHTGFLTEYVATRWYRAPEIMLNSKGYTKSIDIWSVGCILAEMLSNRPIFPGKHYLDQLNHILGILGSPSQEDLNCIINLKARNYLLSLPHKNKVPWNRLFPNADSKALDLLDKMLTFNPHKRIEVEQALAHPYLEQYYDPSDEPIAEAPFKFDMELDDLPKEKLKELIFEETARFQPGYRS

Target: SNAIL1 (human (endogenous in MHCC-97H)) (UniProt O95863)
Assay: co-IP; total lysate of MHCC-97H cells, precleared with protein A/G-agarose, primary antibodies against SNAIL1, ERK2 or IgG, overnight at 4 °C, immunoblotting (Fig. 6c)

binding: binds
Substance: ERK2 (from UniProt P28482 1-360) (enzyme)
